Test results reported in PubChem BioAssay AID200 (DTP/NCI, 2004).
The list does not hold the whole screen: it gathers tests that were run many times, whatever their T/C, doses with no T/C, and many T/C values between a quarter and a half above the control. Further doses and runs are listed elsewhere. T/C is the treated group as % of the vehicle group. Some doses have a count of surviving animals in place of a T/C: the source holds a T/C of zero for them, seemingly a mark for toxic or unscored doses. Some survivor counts are full or nearly so, which does not show that the dose was tolerated: the source hardly ever lists a survival T/C far under the control, and the zero likely stands for such cases as well. Counts of survivors are from the toxicity check (mostly the fifth day) where no day follows; animals may have died later. Schedule codes are those of the source, read here as Q, the interval in days (D) or hours (H), X, the number of doses. Some doses were run more than once; the results are listed from low to high. Where survival is the endpoint, this PubChem deposit counts one and a half times the control or more as active, and values a quarter to a half above the control carry no call in these data; other NCI protocols may use other cut-offs. Some T/C values are followed by the survivors on the day toxicity was checked, most often the fifth; without a count, all were alive then. Additions like (4×) count equal records among those shown.

Test system: B6C3F1 mice, B16 melanoma ip, median survival T/C
Test: NCI In Vivo Anticancer Drug Screen. Data for tumor model B16 Melanoma (intraperitoneal) in B6C3F1 mice
Conditions: T/C endpoint: median survival time, higher T/C = longer survival
How it was run: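 Tumor-bearing mice received test compound; a separate group got vehicle only. Survival was then compared, with results reported as treated over control.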

[1] = dose: 24.0 mg/kg/injection, schedule: Q01DX009 (ip), vehicle: saline
[2] = dose: 50.0 mg/kg/injection, schedule: Q01DX009 (ip), vehicle: saline
[3] = dose: 100.0 mg/kg/injection, schedule: Q01DX009 (ip), vehicle: saline
[4] = dose: 200.0 mg/kg/injection, schedule: Q01DX009 (ip), vehicle: saline
[5] = dose: 400.0 mg/kg/injection, schedule: Q01DX009 (ip), vehicle: saline
[6] = dose: 200.0 mg/kg/injection, schedule: Q01DX009 (ip), vehicle: saline with Tween-80
[7] = dose: 400.0 mg/kg/injection, schedule: Q01DX009 (ip), vehicle: saline with Tween-80
[8] = dose: 25.0 mg/kg/injection, schedule: Q01DX009 (ip), vehicle: saline with Tween-80
[9] = dose: 50.0 mg/kg/injection, schedule: Q01DX009 (ip), vehicle: saline with Tween-80
[10] = dose: 100.0 mg/kg/injection, schedule: Q01DX009 (ip), vehicle: saline with Tween-80
[11] = dose: 400.0 mg/kg/injection, schedule: Q01DX009 (ip), vehicle: Klucel (hydroxypropylcellulose) (HPC)
[12] = dose: 50.0 mg/kg/injection, schedule: Q01DX009 (ip), vehicle: distilled water + Tween-80
[13] = dose: 100.0 mg/kg/injection, schedule: Q01DX009 (ip), vehicle: distilled water + Tween-80
[14] = dose: 12.5 mg/kg/injection, schedule: Q01DX009 (ip), vehicle: Klucel (hydroxypropylcellulose) (HPC)
[15] = dose: 25.0 mg/kg/injection, schedule: Q01DX009 (ip), vehicle: Klucel (hydroxypropylcellulose) (HPC)
[16] = dose: 8.0 mg/kg/injection, schedule: Q01DX009 (ip), vehicle: sodium bicarbonate
[17] = dose: 16.0 mg/kg/injection, schedule: Q01DX009 (ip), vehicle: sodium bicarbonate
[18] = dose: 100.0 mg/kg/injection, schedule: Q01DX009 (ip), vehicle: Klucel (hydroxypropylcellulose) (HPC)
[19] = dose: 200.0 mg/kg/injection, schedule: Q01DX009 (ip), vehicle: Klucel (hydroxypropylcellulose) (HPC)
[20] = dose: 50.0 mg/kg/injection, schedule: Q01DX009 (ip), vehicle: Klucel (hydroxypropylcellulose) (HPC)

In the case of `[Cl][Pt+2][Cl].[NH-]c1ccc(C(=O)c2ccccc2)cc1[NH-]`, the T/C (dose: 160.0 mg/kg/injection, schedule: Q01DX009 (ip), vehicle: saline with Tween-80) is reported as 127 % of control [9 of 10 alive].

`O=c1n(CC2CO2)c(=O)n(CC2CO2)n1CC1CO1` (stereo unspecified) was tested, and the T/C (dose: 1.5 mg/kg/injection, schedule: Q01DX009 (ip), vehicle: saline) was 143 % of control, the survivor count [1] was 10 of 10 and the survivor count (dose: 25.0 mg/kg/injection, schedule: Q01DX009 (ip), vehicle: saline) was 10 of 10. The survivor count [2] was 8 of 10 and the survivor count [3] was 0 of 10.

With `NNC(=O)c1ccncc1` the T/C (dose: 8.0 mg/kg/injection, schedule: Q01DX009 (ip), vehicle: saline) was 130 % of control, the T/C (dose: 16.0 mg/kg/injection, schedule: Q01DX009 (ip), vehicle: saline) was 145 % of control and the T/C (dose: 32.0 mg/kg/injection, schedule: Q01DX009 (ip), vehicle: saline) was 128 % of control. For the same compound, the survivor count [4] was 3 of 10 and the survivor count [5] was 0 of 10.

With `C1CN1P1(N2CC2)=NP(N2CC2)(N2CC2)=NP(N2CC2)(N2CC2)=NP(N2CC2)(N2CC2)=N1` the survivor count (dose: 16.0 mg/kg/injection, schedule: Q02DX009 (ip), vehicle: saline) was 10 of 10.

With `CN(CN1C(=O)CCC1=O)CN1C(=O)CCC1=O` the survivor count [5] was 0 of 10.

For `Clc1ccccc1C(Nc1cnccn1)Nc1cnccn1`, the survivor count [6] was 10 of 10 and the survivor count [7] was 10 of 10.

In the case of `CCC(C)C(=O)OC1C(=O)OC2CC3C(C)=CC(=O)C(O)C3(C)C3C4(O)OCC23C1C(C)C4O` (stereo unspecified), the T/C (dose: 0.62 mg/kg/injection, schedule: Q01DX009 (ip), vehicle: saline) is reported as 137 % of control, the T/C (dose: 1.25 mg/kg/injection, schedule: Q01DX009 (ip), vehicle: saline) is reported as 125 % of control and the T/C (dose: 10.0 mg/kg/injection, schedule: Q01DX009 (ip), vehicle: saline) is reported as 132 % of control [8 of 10 alive].

In the case of `CC(=O)O[C@H]1C(=O)[C@@]2(C)C(C(OC(=O)c3ccccc3)[C@]3(O)C[C@H](OC(=O)C(OC(=O)CCCC(=O)NCCCN(C)C)C(NC(=O)c4ccccc4)c4ccccc4)C(C)=C1C3(C)C)C1(OC(C)=O)COC1C[C@@H]2O` (stereo partly specified), the T/C (dose: 2.5 mg/kg/injection, schedule: Q01DX009 (ip), vehicle: water) is reported as 131 % of control and the T/C (dose: 5.0 mg/kg/injection, schedule: Q01DX009 (ip), vehicle: water) is reported as 149 % of control.

In the case of `Nc1nc(-c2cccc(S(=O)(=O)O)c2)c([N+](=O)[O-])c(=O)[nH]1`, the T/C (dose: 103.0 mg/kg/injection, schedule: Q01DX009 (ip), vehicle: saline) is reported as 131 % of control.

With `C1=CCOCOC1` the T/C (dose: 12.5 mg/kg/injection, schedule: Q01DX009 (ip), vehicle: saline with Tween-80) was 99, 100, 104, 110 % of control, the T/C [8] was 95, 103, 104, 127 % of control and the T/C [9] was 97, 99, 100, 112 % of control. For the same compound, the T/C [10] was 100 [9 of 10 alive], 103, 104, 114 % of control, the T/C [6] was 93 [9 of 10 alive], 96 [7 of 10 alive], 110 % of control and the survivor count [6] was 6 of 10. The survivor count [7] was 0 of 10 and 6 of 10.

With `O=C1CSC(c2cccs2)N1c1nncs1` (stereo unspecified) the survivor count [11] was 10 of 10.

In the case of `NC(=O)/C=C/c1c[nH]c2nccnc12`, the survivor count (dose: 50.0 mg/kg/injection, schedule: Q01DX009 (ip), vehicle: water) is reported as 3 of 10.

With `CC(C)CC(NC(=O)C(F)(F)F)C(=O)O` (stereo unspecified) the survivor count [3] was 10 of 10.

In the case of `CC(=O)NC(CC(C)C)C(=O)O` (stereo unspecified), the survivor count [9] is reported as 10 of 10, the survivor count [10] is reported as 10 of 10 and the survivor count [6] is reported as 10 of 10. For the same compound, the survivor count [7] was 10 of 10.

`Nc1ncnc2c1c1c(=O)[nH]c(=O)[nH]c1n2C1OC(CO)C(O)C1O` (stereo unspecified) was tested, and the T/C [12] was 132 % of control, the T/C [13] was 125 % of control and the T/C (dose: 400.0 mg/kg/injection, schedule: Q01DX009 (ip), vehicle: distilled water + Tween-80) was 147 % of control [9 of 10 alive].

With `COC1(OC)C2C=CC1CC2` the T/C [8] was 130 % of control and the survivor count [7] was 9 of 10.

In the case of `COc1cc(C2c3cc4c(cc3C(OC3CCCCO3)C3COC(=O)C23)OCO4)cc(OC)c1OC` (stereo unspecified), the survivor count (dose: 6.25 mg/kg/injection, schedule: Q01DX009 (ip), vehicle: Klucel (hydroxypropylcellulose) (HPC)) is reported as 10 of 10, the survivor count [14] is reported as 7 of 10 and the survivor count [15] is reported as 4 of 10.

For `CN(Cc1cnc2nc(N)nc(N)c2n1)c1ccc(C(=O)N[C@@H](CCC(=O)O)C(=O)O)cc1`, the T/C (dose: 1.0 mg/kg/injection, schedule: Q01DX009 (ip), vehicle: sodium bicarbonate) was 90, 91 [8 of 10 alive], 93, 96, 96 [8 of 10 alive], 103 % of control, the T/C (dose: 2.0 mg/kg/injection, schedule: Q01DX009 (ip), vehicle: sodium bicarbonate) was 97, 98, 99 (2×), 104, 105 % of control and the T/C (dose: 4.0 mg/kg/injection, schedule: Q01DX009 (ip), vehicle: sodium bicarbonate) was 86, 95, 99, 102, 105, 107 % of control. For the same compound, the T/C [16] was 93, 94 [9 of 10 alive], 95 [9 of 10 alive], 96, 100 % of control, the survivor count [16] was 10 of 10 and the T/C [17] was 89 [9 of 10 alive] and 101 % of control. The survivor count [17] was 9 of 10 and 10 of 10.

For `COc1cccc2c1C(=O)c1c(O)c3c(c(O)c1C2=O)C[C@@](O)(C(C)=O)C[C@@H]3OC1CC(N(C)Cc2ccccc2)C(O)C(C)O1` (stereo partly specified), the T/C (dose: 6.25 mg/kg/injection, schedule: Q01DX001 (ip), vehicle: distilled water + Tween-80) was 128 % of control, the T/C (dose: 25.0 mg/kg/injection, schedule: Q01DX001 (ip), vehicle: distilled water + Tween-80) was 137 % of control and the survivor count (dose: 50.0 mg/kg/injection, schedule: Q01DX001 (ip), vehicle: distilled water + Tween-80) was 7 of 10. The survivor count (dose: 100.0 mg/kg/injection, schedule: Q01DX001 (ip), vehicle: distilled water + Tween-80) was 5 of 10.

For `Cc1cc(Nc2ccc3c(c2)OCO3)c2cc3c(cc2n1)OCO3`, the survivor count [18] was 10 of 10, the survivor count [19] was 2 of 10 and the survivor count [11] was 0 of 10.

For `CC(C)NC(=O)N(CCCCBr)N=O`, the T/C [15] was 125 % of control, the T/C [20] was 138 % of control and the survivor count [18] was 10 of 10. For the same compound, the survivor count [19] was 10 of 10.

For `O=[N+]([O-])c1ccc2c3c(ccc([N+](=O)[O-])c13)CC2`, the survivor count [19] was 7 of 7 and the survivor count [11] was 7 of 7.

`CCCCCC[Se][Se]CCCCCC` was tested, and the survivor count [14] was 10 of 10, the survivor count [15] was 3 of 10 and the survivor count [20] was 2 of 10.

For `O=C(/C=C(\Cl)C(=O)NO)NO`, the survivor count [2] was 10 of 10 and the survivor count [4] was 5 of 10 and 9 of 10.

In the case of `CCOC(=O)c1ccc(NC(=O)Nc2nc(C)cs2)cc1`, the T/C [12] is reported as 137 % of control, the T/C [13] is reported as 139 % of control and the survivor count (dose: 200.0 mg/kg/injection, schedule: Q01DX009 (ip), vehicle: distilled water + Tween-80) is reported as 4 of 8.

In the case of `[N-]=[N+]=[N-]`, the survivor count [1] is reported as 0 of 10.

For `Cc1c2ccc3ccccc3c2c[n+]2ccccc12`, the survivor count (dose: 40.0 mg/kg/injection, schedule: Q01DX009 (ip), vehicle: Klucel (hydroxypropylcellulose) (HPC)) was 3 of 10.

In the case of `[Cl][Pt+2][Cl].[NH-]c1ccc(Cl)cc1[NH-]`, the T/C (dose: 5.0 mg/kg/injection, schedule: Q01DX009 (ip), vehicle: saline with Tween-80) is reported as 133 % of control, the T/C (dose: 10.0 mg/kg/injection, schedule: Q01DX009 (ip), vehicle: saline with Tween-80) is reported as 141 % of control and the survivor count (dose: 40.0 mg/kg/injection, schedule: Q01DX009 (ip), vehicle: saline with Tween-80) is reported as 10 of 10.
